# This is one part of the list. Shown are side measurements of this screen, not its main read-out; they come without a call. The list favours compounds with an active or inconclusive main result. Potencies come from curve fits of mixed quality, noted in brackets.
# Assay: IkB Signaling
# Conditions: ABC-DLBCL IkBa-CBG/CBR dual luciferase ratio (green luciferase fused to IkBa over red control in OCI-Ly3 lymphoma cells), 4 h
# Description: NIH Molecular Libraries Screening Centers Network [MLSCN]
# NIH Chemical Genomics Center [NCGC]
# Nuclear factor kappa-B (NF-kappa-B) plays an important role in normal B cell development and survival. Diffuse large B cell lymphoma (DLBCL) is the most commonly observed type of non-Hodgkin's lymphoma. Gene expression analysis has identified an activated B cell-like subtype of DLBCL (ABC-DLBCL) which expresses known NF-kappa-B target genes. […] However, targets upstream of IKK have been largely unexplored and so nodes upstream of IKK in the NF-kappa-B pathway remain untested due to the lack of chemical probes.
# A cell-sensor assay for I-kappa-B-alpha stabilization was developed with NIH investigator Dr. R. Eric Davis in Dr. Louis M. Staudt's laboratory. The assay uses green (CBG68) and red (CBR) emitting beetle luciferases [Chroma-Glo(TM) developed by Promega Corp.] where the green luciferase is fused to I-kappa-B-alpha and the red luciferase is present in its native state. Both luciferase genes are stably present in the OCI-Ly3 human ABC DLBCL cell line, but their expression is under the control of tetracycline-inducible promoters. Following the addition of doxycycline to induce expression of the luciferases, the green luminescence in control cultures rises only slowly because the CBG fusion partner I-kappa-B-alpha is targeted by IKK activity for rapid degradation. In contrast, green luminescence rises rapidly in the presence of proteasome inhibitors or IKK inhibitors. The rise in red luminescence of CBR is not affected by proteasome or IKK inhibitors, and serves as normalization for cell number and nonspecific effects. Compounds were screened as a concentration-titration series that ranged from 57 uM to 0.7 nM.
# NCGC Assay Protocol Summary:
# Cells were seeded in 1536-well plates at 5000 cells/3ul in IMDM medium containing 0.5% FBS, w/o phenol red, L-glutamine, 25 mM HEPES, 3 mg/ml sodium bicarbonate. After centrifugation for 1 min. at 1000 rpm, 23 nl of compounds or DMSO were delivered to each well using a pin tool. Then 1ul 80ng/ml doxycycline was dispensed into white solid 1536-well plates and the plates were incubated at 37C/5% C02 in a cell incubator for 4 hrs. Then 4 ul Chroma-Glo luminescent substrate mix (Promega) was added to each well. The plate was incubated at R.T. for 10-15 min. The plates were measured on a ViewLux plate reader for green luminescence (540/20 nm filter) and red luminescence (618/8 nm filter). The green and red luminescent signals were corrected for red and green luminescence filter overlap using previously determined filter calibration constants (determined using the procedure outlined in the Promega Technical Manual). The %Activity was determined from the ratio of corrected green/red luminescent values. Green luminescent and ratio %Activity was determined by normalizing to the difference in signal between basal cells (0% Activity) and cells incubated with 10 uM of the proteasome inhibitor MG-132 (100% Activity). Red luminescent %Activity was normalized to the difference between red luminesence in basal cells (0%Activity) and zero luminescence (-100% Activity).
# Concentration-response curves were fitted to the signals arising from the green luminescence (I-kappa-B-alpha-luciferase fusion; IkB-luc) and the red luminescence (unfused luciferase; luc) as well as the calculated ratio. The concentration-effect curves were then classified based on curve quality (r2), response magnitude and degree of measured activity. Compounds were then categorized based on their concentration-response curves for all three datasets (Ikb-luc, luc and ratio).
# Keywords: IKK, I-kappa-B, IkB, IkBa, cytotoxicity, luminescence, MLSMR, MLSCN, NIH Roadmap, qHTS, NCGC
# [1] = measured here: control luc red channel unless noted
smiles,measurement,setting,value
COc1cccc(C(=O)NCC(c2cccnc2)N2CCN(c3ccccc3OC)CC2)c1 (stereo not drawn),AC50,[1],"25.1 µM [falling, partial curve]"
Cc1onc(-c2c(F)cccc2Cl)c1C(=O)Nc1ccc(OC(C)C)cc1,AC50,[1],"15.8 µM [falling, partial curve]"
O=C1CCCc2cc(S(=O)(=O)NCC3CCC(C(=O)NCc4ccccc4Cl)CC3)ccc2N1 (stereo not drawn),AC50,[1],"25.1 µM [falling, single point]"
COc1ccc(CCNC(=O)c2cc3c(s2)-c2ccccc2OC3)cc1OC,AC50,[1],"15.8 µM [falling, partial curve]"
Cc1ccc(-n2nc3c(N4CCC(C(=O)NC(C)c5ccccc5)CC4)nnc(C)c3c2C)cc1 (stereo not drawn),AC50,[1],"2 µM [falling, full curve, poor fit]"
O=C(Cn1ccc2ccccc2c1=O)NCCC(=O)Nc1ccc(F)cc1F,AC50,[1],"12.6 µM [falling, partial curve, poor fit]"
CCOC(=O)c1cccc(NC(=O)c2cc(S(=O)(=O)N3CCCC(C)C3)cn2C)c1 (stereo not drawn),AC50,[1],"5.01 µM [falling, partial curve]"
CC1=C(C(N)=O)C(c2ccc(C)cc2)n2nc(SCc3ccccc3F)nc2N1 (stereo not drawn),AC50,[1],"0.0501 µM [falling, full curve, poor fit]"
Cc1ccc2cc(C#N)c(N3CCCN(C(=O)C4CCCO4)CC3)nc2c1C (stereo not drawn),AC50,[1],"25.1 µM [falling, single point]"
CCOC(=O)C1CCCN(C(=O)Cn2ncc3c(C)n(Cc4ccccc4F)c(C)c3c2=O)C1 (stereo not drawn),AC50,[1],"15.8 µM [falling, partial curve]"
COc1cccc(CNC(=O)CSc2nnc(C)c3c(C)n(-c4ccccc4)nc23)c1OC,AC50,[1],"20 µM [falling, partial curve]"
Cc1cc(C)cc(NC2=C(c3ccccc3)C(=O)c3ccccc32)c1,AC50,[1],"7.94 µM [falling, full curve]"
O=C(CCCNS(=O)(=O)c1cccs1)N1CCN(c2cccc(Cl)c2)CC1,AC50,[1],"12.6 µM [falling, partial curve]"
CC[C@@H](C)[C@@H](C(=O)Nc1ccc(C)cc1)N1Cc2ccccc2C1=O,AC50,[1],"39.8 µM [falling, single point]"
CCCn1c(=O)c2c(nc3n2CCN3c2ccc(C)cc2)n(C)c1=O,AC50,[1],"20 µM [falling, single point]"
Cc1ccc(CN(C(=O)COc2ccc(Cl)cc2C)C2CCS(=O)(=O)C2)o1 (stereo not drawn),AC50,[1],"10 µM [falling, partial curve]"
CCOC(=O)c1c(NC(=O)c2cc(CC(C)C)on2)sc(C(C)=O)c1C,AC50,[1],"0.316 µM [rising, full curve]"
Cc1ccc(NC(=O)c2cc3c(=O)n(Cc4ccco4)ccc3nc2C)cc1C,AC50,[1],"20 µM [falling, partial curve]"
Cn1c(=O)oc2cc(S(=O)(=O)NCCC(=O)NCCc3ccc(Cl)cc3)ccc21,AC50,[1],"7.94 µM [falling, partial curve]"
CSc1ccc(C2c3c(oc4cc(C)cc(C)c4c3=O)C(=O)N2CCO)cc1 (stereo not drawn),AC50,[1],"3.16 µM [falling, single point]"
Cc1nc2sc(C(=O)N(C)c3ccccc3)c(NC(=O)c3ccccc3Cl)c2c(C)c1C,AC50,[1],"12.6 µM [falling, partial curve]"
COc1ccc(C2C(C(=O)Nc3ccccc3OC)=C(C)Nc3c(C(=O)Nc4ccccc4)cnn32)c(OC)c1 (stereo not drawn),AC50,[1],"12.6 µM [falling, single point]"
Cc1ccc(NC(=O)c2c(C)oc3ccc(O)c(CN4CCOCC4)c23)c(C)c1,AC50,[1],"39.8 µM [falling, single point]"
CCN(CC)Cc1c(NC(=O)c2ccc(OC)cc2)sc2c1CCCC2,AC50,[1],"25.1 µM [falling, partial curve]"
Cc1ccc(C)c(-c2nnc(NC(=O)c3ccc4c(c3)OCCO4)o2)c1,AC50,measured here: IkB-luc green channel,"5.01 µM [rising, full curve]"
same,AC50,measured here: control luc red channel,"6.31 µM [rising, single point]"
CCOC(=O)C1CCN(C(=O)CSCc2nc(-c3ccc(OCC)cc3)oc2C)CC1,AC50,[1],"39.8 µM [falling, single point]"
O=C(CN1CCN(c2ccccc2)CC1)Nc1nnc(-c2ccccc2)s1,AC50,[1],"31.6 µM [falling, partial curve]"
Cc1ccc(NC(=O)CN2C(=O)CCc3cc(S(=O)(=O)N4CCCCC4)ccc32)cc1C,AC50,[1],"39.8 µM [falling, single point]"
Cc1cc(C)cc(-n2c(C)nc3cc(C(=O)NCc4ccccc4Cl)ccc32)c1,AC50,[1],"31.6 µM [falling, partial curve]"
COc1cccc(C(=O)Nc2ccc(-n3nncc3-c3ccccc3)cc2)c1,AC50,[1],"39.8 µM [falling, single point]"
O=S(=O)(Nc1cccc2cccnc12)c1ccc(S(=O)(=O)N2CCCC2)cc1,AC50,[1],"7.94 µM [rising, partial curve] [measured here: IkB-luc green channel]"
Cn1c(C(=O)N2CCCC(C(=O)NCc3ccc4c(c3)OCO4)C2)cc2sccc21 (stereo not drawn),AC50,[1],"25.1 µM [falling, partial curve]"
Cc1ccc2nc(NC(=O)CN(C)S(=O)(=O)c3ccc(Br)s3)sc2c1,AC50,[1],"10 µM [falling, partial curve]"
Cc1ccc2[nH]c(C(=O)Nc3ccccc3)cc2c1,AC50,[1],"5.01 µM [falling, partial curve]"
CC(CN1CCOCC1)OC(=O)c1ccc(Br)cc1 (stereo not drawn),AC50,[1],"6.31 µM [falling, single point]"
COc1cc2cc(C(c3nnnn3C(C)(C)C)N3CCc4ccccc4C3)c(=O)[nH]c2cc1OC (stereo not drawn),AC50,[1],"39.8 µM [rising, single point] [measured here: IkB-luc green channel]"
COc1ccc(-c2[nH]c(-c3ccccc3)nc2SCC(=O)Nc2ccc3c(c2)OCCO3)cc1,AC50,[1],"15.8 µM [falling, partial curve]"
CC(C)c1ccc2c(c1)CC[C@@H]1[C@@](C)(CN)CCC[C@@]21C,AC50,[1],"3.98 µM [falling, single point]"
CCc1ccc(-c2nc(CN3CCCC(C(=O)NCc4ccc(C)cc4)C3)c(C)o2)cc1 (stereo not drawn),AC50,[1],"15.8 µM [falling, partial curve]"
COc1ccc(-c2cc3nc(C)c(CCC(=O)Nc4cccc(C(F)(F)F)c4)c(C)n3n2)c(OC)c1,AC50,[1],"0.158 µM [falling, full curve]"
CCn1cc2nc(SCC(=O)Nc3ccccc3F)n(Cc3ccc(C)cc3)c(=O)c2n1,AC50,[1],"20 µM [falling, partial curve]"
Cc1ccnc(NC(=O)c2c(C)oc3ncn(CC(C)C)c(=O)c23)c1,AC50,[1],"0.2 µM [rising, full curve]"
Cc1ccc(CNC(=O)Nc2cn(CC(C)C)c(=O)c3ccccc23)cc1,AC50,[1],"10 µM [falling, partial curve]"
CN(C(=O)Cn1cc(S(=O)(=O)N2CCN(c3ccccc3F)CC2)c2ccccc2c1=O)c1ccc(Cl)cc1,AC50,[1],"7.94 µM [falling, partial curve, poor fit]"
COc1cc(-c2nnc(SCC(=O)N(Cc3ccccc3)C(C)(C)C)o2)cc(OC)c1OC,AC50,[1],"20 µM [falling, partial curve]"
Cc1ccc(C(=O)Nc2ccccc2C(=O)O)cc1S(=O)(=O)N1CCCCCC1,AC50,[1],"3.98 µM [falling, partial curve]"
O=C(Nc1sc2c(c1C(=O)Nc1ccc(Cl)cc1)CCCC2)c1cccs1,AC50,[1],"3.98 µM [falling, full curve]"
Cc1ccccc1-c1nc(CS(=O)(=O)CC(=O)NCc2ccc3c(c2)OCO3)c(C)o1,AC50,[1],"12.6 µM [falling, partial curve]"
CCc1ccc2oc(-c3cccc(NC(=O)c4cc5ccccc5o4)c3)nc2c1,AC50,[1],"3.16 µM [falling, partial curve]"
Cc1nc2ccccc2c(=O)n1CCCn1ccnc1,AC50,[1],"7.94 µM [rising, partial curve]"
Cc1nc2c(C(=O)O)cnn2c(C)c1Cc1ccccc1,AC50,[1],"0.158 µM [falling, full curve]"
CCCc1nn2c(=O)cc(COC(=O)c3ccc(NC(=O)CCc4ccccc4)cc3)nc2s1,AC50,[1],"0.794 µM [falling, full curve]"
Cc1c(NC(=O)C(C)OC(=O)c2cc3c4ccccc4n(C)c3s2)c(=O)n(-c2ccccc2)n1C (stereo not drawn),AC50,[1],"5.01 µM [falling, partial curve]"
O=C(Nc1nnc(C(F)(F)F)s1)c1cccnc1,AC50,[1],"2.51 µM [falling, full curve]"
O=C1c2ccccc2C(=O)N1CSc1nnnn1-c1ccccc1,AC50,[1],"39.8 µM [rising, single point]"
N#Cc1c(N)[nH]c(=S)c(C#N)c1-c1ccccc1,AC50,[1],"39.8 µM [falling, single point]"
COc1ccc(NC(=O)Cn2c(=O)cc(C)c3c(C)nn(-c4cccc(Cl)c4C)c32)cc1OC,AC50,[1],"1.58 µM [rising, partial curve, poor fit]"
O=C(NC1CC(=O)N(c2ccc3c(c2)OCCO3)C1)c1c(F)cccc1Cl (stereo not drawn),AC50,[1],"5.01 µM [rising, partial curve]"
O=C(NCCc1csc(-c2ccc(F)cc2)n1)c1cccs1,AC50,[1],"20 µM [falling, partial curve]"
CCOC(=O)c1cc(-c2ccccc2)n(CC(=O)NC2CCC(C)CC2)c1C (stereo not drawn),AC50,[1],"39.8 µM [falling, single point]"
Cc1c(NC(=O)Nc2ccc(Cl)c(Cl)c2)c(=O)n(-c2ccccc2)n1C,AC50,[1],"20 µM [falling, partial curve]"
Cc1ccc2c(c1)c(=O)c(C(=O)c1ccc3c(c1)OCO3)cn2Cc1cccc(F)c1,AC50,[1],"39.8 µM [falling, single point]"

# As a short view, part of the list above.
smiles,measurement,setting,value
CCOC(=O)c1cccc(NC(=O)c2cc(S(=O)(=O)N3CCCC(C)C3)cn2C)c1 (stereo not drawn),AC50,[1],"5.01 µM [falling, partial curve]"
CC1=C(C(N)=O)C(c2ccc(C)cc2)n2nc(SCc3ccccc3F)nc2N1 (stereo not drawn),AC50,[1],"0.0501 µM [falling, full curve, poor fit]"
Cc1ccc2cc(C#N)c(N3CCCN(C(=O)C4CCCO4)CC3)nc2c1C (stereo not drawn),AC50,[1],"25.1 µM [falling, single point]"

# — PubChem BioAssay AID445 (National Center for Advancing Translational Sciences (NCATS), 2006)
